Results from PubChem BioAssay AID252 (DTP/NCI, 2004).
The list is a part of this screen's results and no random one: it covers a few groups of compounds. Not every dose and run of a compound is shown. T/C is the treated group as % of the vehicle group. For survival time, this PubChem deposit counts one and a half times the control or more as active, and values a quarter to a half above the control carry no call in these data; other NCI protocols may use other cut-offs. Some entries show no survivor count and are marked so; the dose need not have been tolerated. Schedules are NCI's codes, read here as Q, the interval in days (D) or hours (H), X, the number of doses. Some doses were run more than once; the results are listed from low to high.

Tested on: BDF1 mice, intracerebral L1210 leukemia, survival T/C
Experiment: NCI In Vivo Anticancer Drug Screen. Data for tumor model L1210 Leukemia (intracerebral) in B6D2F1 (BDF1) mice
Conditions: vehicle: saline, higher T/C = longer survival
Description: The antitumor activity of compounds was measured in mice bearing transplantable tumors. Survival or tumor size were measured and the results are expressed as the measurement made in the treated group (T) divided by the measurement made in the vehicle treated control group (C). The tumor model used in this assay is L1210 Leukemia (intracerebral) in B6D2F1 (BDF1) mice

CN(CCCl)CCCl
T/C (T/C endpoint: mean survival time, dose: 0.13 mg/kg/injection, schedule: Q01DX015 (ip)): 102 % of control [survivor count not shown] | T/C (T/C endpoint: mean survival time, dose: 0.2 mg/kg/injection, schedule: Q01DX015 (ip)): 101 % of control [survivor count not shown] | T/C (T/C endpoint: mean survival time, dose: 0.3 mg/kg/injection, schedule: Q01DX015 (ip)): 103 % of control [survivor count not shown] | T/C (T/C endpoint: mean survival time, dose: 1.3 mg/kg/injection, schedule: Q01DX001 (ip)): 104 % of control [survivor count not shown] | T/C (T/C endpoint: mean survival time, dose: 1.5 mg/kg/injection, schedule: Q01DX001 (ip)): 102 % of control [survivor count not shown] | T/C (T/C endpoint: mean survival time, dose: 1.9 mg/kg/injection, schedule: Q01DX001 (ip)): 103 % of control [survivor count not shown] | T/C (T/C endpoint: mean survival time, dose: 2.0 mg/kg/injection, schedule: Q01DX001 (ip)): 105 [survivor count not shown] and 110 % of control [survivor count not shown] | T/C (T/C endpoint: mean survival time, dose: 2.5 mg/kg/injection, schedule: Q01DX001 (ip)): 96 [survivor count not shown] and 110 % of control [survivor count not shown] | T/C (T/C endpoint: mean survival time, dose: 2.9 mg/kg/injection, schedule: Q01DX001 (ip)): 101 % of control [survivor count not shown] | T/C (T/C endpoint: mean survival time, dose: 3.0 mg/kg/injection, schedule: Q01DX001 (ip)): 97 [survivor count not shown] and 111 % of control [survivor count not shown] | T/C (T/C endpoint: mean survival time, dose: 3.5 mg/kg/injection, schedule: Q01DX001 (ip)): 98 [survivor count not shown] and 120 % of control [survivor count not shown] | T/C (T/C endpoint: mean survival time, dose: 4.0 mg/kg/injection, schedule: Q01DX001 (ip)): 92 % of control [survivor count not shown] | T/C (T/C endpoint: mean survival time, dose: 4.5 mg/kg/injection, schedule: Q01DX001 (ip)): 87 % of control [survivor count not shown] | T/C (T/C endpoint: median survival time, dose: 1.5 mg/kg/injection, schedule: Q01DX001 (oral)): 104 % of control [survivor count not shown] | T/C (T/C endpoint: median survival time, dose: 3.0 mg/kg/injection, schedule: Q01DX001 (oral)): 101 % of control [survivor count not shown] | T/C (T/C endpoint: median survival time, dose: 6.0 mg/kg/injection, schedule: Q01DX001 (oral)): 103 % of control [survivor count not shown] | T/C (T/C endpoint: median survival time, dose: 12.0 mg/kg/injection, schedule: Q01DX001 (oral)): 109 % of control [survivor count not shown] | T/C (T/C endpoint: median survival time, dose: 24.0 mg/kg/injection, schedule: Q01DX001 (oral)): 103 % of control [survivor count not shown]
